This series in a line: Fmoc solid-phase peptide synthesis; Fmoc-Ser(tBu) resin; DIC/HOBt. The settings on record: whole synthesis, scale 33 mmol.

The values below come from patent publication US8911953B2 (Thrasos Innovation, Inc., priority 2005, dated 2014).

“H-CYYDNSSSVLCKRYRS-OH (cysteine pairing not given here)”: the crude mass is reported as 69 g.
